# The other results are listed elsewhere or left out.
# System: T1, CTL2-GFP (C. trachomatis L2/434/Bu, GFP-expressing)
# T1 construct: L2/434/Bu, GFP-expressing
# Design: species or system HeLa; Intracellular C. trachomatis growth in HeLa cells, bulk GFP fluorescence relative to DMSO
# Details: bulk GFP, single well; 28.5 h, 10 µM; inhibitor
row,SMILES,% of control remaining
1,Cc1c(Cc2c(Cl)cccc2Cl)c(=O)n(C)n1C [CBK113274],79.3514%
2,COC(C)CN(C)C(=O)c1oc2cc(C)ccc2c1C (centres unmarked) [CBK282043],139.639%
3,O=C(NCc1nnc(-c2cccs2)o1)C1c2ccccc2Oc2ccccc21 [CBK286297],120.635%
4,Cn1ccnc1C(NC(=O)N1CCCCC1)c1ccc(F)c(F)c1 (centres unmarked) [CBK283832],95.2958%
5,Cn1ccnc1C1(O)CCN(C(=O)Nc2ccccc2F)CC1 [CBK282280],73.6327%
6,CC(C)NC(=O)N1CCCC2(C1)NCCc1c2[nH]c2ccccc12 (centres unmarked) [CBK046952],161.379%
7,Cc1ccc(C(=O)C2=C(O)C(=O)N(CCCN(C)C)C2c2ccccn2)o1 (centres unmarked) [CBK269575],132.217%
8,Cc1ccccc1-c1cc(C(=O)Nc2ccc(S(N)(=O)=O)cc2)c2cc(Cl)ccc2n1 [CBK267741],121.363%
9,CC(C)CN1CCC[C@H]1c1nc(-c2ccc(-n3ccnc3)nc2)no1 [CBK288894],130.843%
10,O=C(O)/C=C/C(=O)Nc1ccc(S(=O)(=O)NCc2ccco2)cc1 [CBK264500],120.995%
11,CCNC(=O)N1CC2(CCN(CCOCC)CC2)c2ccccc21 [CBK136972],113.038%
12,CC(C)N1CCC(CNC(=O)c2cccc(N3CCCC3=O)c2)CC1 [CBK282641],106.742%
13,Cc1sc2ncnc(SCC(=O)Nc3sc4c(c3C#N)CCCC4)c2c1-c1ccccc1 [CBK265938],137.944%
14,CN(C(=O)c1cc(S(=O)(=O)N2CCOCC2)ccc1F)C1CCCCC1 [CBK304580],105.96%
15,COc1ccc(S(=O)(=O)NCCN2CCOCC2)c(C)c1C [CBK266479],137.958%
16,O=C(Cn1cc(C(=O)NCc2ccccc2)ccc1=O)NC1(c2ccccc2)CCCC1 [CBK285753],112.556%
17,NCc1oc(-c2ccccc2)cc1C(=O)O [CBK265941C],119.956%
18,CC1(C)Cc2c(cnn2-c2ccc(F)cc2)C(NS(C)(=O)=O)C1 (centres unmarked) [CBK307403],130.195%
19,CCCC(C)C(=O)Nc1ccncc1 (centres unmarked) [CBK057984],96.9285%
20,O=S1(=O)C=C(N2CCCCCC2)CC1 [CBK025571C],142.421%
21,CCc1nc2ccc(C(=O)Nc3ccc(NC(C)=O)cc3)cn2c1N(CC)Cc1ccc(OC)c(OC)c1 [CBK146994],97.9868%
22,O=c1cc(O)c2ccccc2n1Cc1ccccc1Cl [CBK291255],133.707%
23,Nc1ccc(S(=O)(=O)O)c2cccc(S(=O)(=O)O)c12 [CBK261492N],100%
24,COc1ccc([C@@]23CC[C@H](NC(=O)CSc4nccn4C)C[C@@H]2N(C)CC3)cc1OC [CBK036444],155.777%
25,Cc1ccc(C(=O)Nc2nc(C)c(-c3n[nH]c(=S)n3C)s2)cn1 [CBK295327],133.999%
26,O=[N+]([O-])c1ccccc1S(=O)(=O)Nc1ccc(S(=O)(=O)Nc2ccccc2)cc1 [CBK264796],119.437%
27,CN1CCN(C(=O)CN(CC(=O)N2CCN(C)CC2)S(=O)(=O)c2ccc(Cl)cc2)CC1 [CBK269627],119.211%

row,SMILES,% of control remaining
1,O=C(CN1CCCC1Cn1cncn1)NCCc1ccsc1 (centres unmarked) [CBK305113],124.76%
2,CCN(CC)Cc1ccc(C(=O)N2CCC(c3ccncc3)CC2)o1 [CBK283051],81.729%
3,COc1cc(C(c2c(C(=O)O)[nH]c3ccccc23)c2c(C(=O)O)[nH]c3ccccc23)cc(I)c1O [CBK267804],140.065%
4,CSCCN1CCC(Oc2nccnc2OCCN2CCOCC2)CC1 [CBK082935],105.491%
5,CS(=O)(=O)Nc1cccc2cc[nH]c12 [CBK159509],92.8808%
6,CC(C)(C)c1ccc(C(=O)N2CCCCC2CO)cc1 (centres unmarked) [CBK073951],138.048%
7,Nc1nc(N2CCCCC2)nc2ccccc12 [CBK012270],104.889%
8,Cn1cncc1CN(CCCn1ccnc1)Cc1ccccc1Cl [CBK283041],137.292%
9,Cc1nnc(SCC(=O)N2CCN(c3ccc(Cl)cc3)CC2)s1 [CBK307389],130.374%
10,CSCCCNC(=O)c1ccc2c(c1)nc(N1CC[C@H](O)C1)n2C [CBK306807],97.471%
11,CC(C)C(=O)N1CCC(n2nc(-c3cccs3)ccc2=O)CC1 [CBK284181],106.895%
12,COc1ccc(C(=O)N2CCC3(CC2)NC(=O)c2cc(C)ccc2O3)cc1C [CBK166277],112.964%
13,CC(C)C1OC(N2CCOCC2)=NC1=O (centres unmarked) [CBK070384],116.999%
14,O=C(c1cnccc1C(F)(F)F)N1Cc2ccccc2C1 [CBK200323],123.16%
15,O=C(Nc1nc(-c2cccnc2)cs1)c1ccccc1 [CBK287569],147.783%
16,CCN(CC)C(=O)c1ccccc1NS(=O)(=O)c1ccc(C)cc1 [CBK045416],145.107%
17,Cc1cccn2c(CN3CCCC(O)C3)c(C(=O)N3CCOCC3)nc12 (centres unmarked) [CBK306545],148.745%
18,CCc1cc(Br)ccc1S(=O)(=O)NCCOc1ccccc1 [CBK044882],104.564%
19,O=C(O)c1ccc(N2C(=O)C3C4C=CC(C4=C(c4ccccc4)c4ccccc4)C3C2=O)cc1 (centres unmarked) [CBK263030],112.578%
20,CS(=O)(=O)Nc1nnc(C2CCCCC2)s1 [CBK069540],105.547%
21,CCOc1cc(/C=C(/C#N)C(N)=S)ccc1OCC(=O)N1CCCC1 [CBK268765],137.845%
22,Cc1cc(C)c2nc(O)nc(O)c2c1 [CBK017986],130.434%
23,O=C1CC(c2ccco2)Cc2c1cnn2-c1ccccc1 (centres unmarked) [CBK287860],116.277%
24,CN1CCN(c2ccc(-c3cnc(N)c(NC4CCOCC4)n3)cc2)CC1 [CBK064114],171.701%
25,CCCc1nnc(SCC(=O)Nc2ccc(CN3CCOCC3)cc2)[nH]1 [CBK305583],105.792%
26,CCNC(=O)N[C@H]1CC[C@]2(C)CCC([C@H](C)C(=O)N3CCCCC3)[C@H](O)[C@H]2[C@@H]1C (some centres unmarked) [CBK289455],119.517%
27,CCOc1cc(NC2CCN(C(=O)Cc3ccncc3)CC2)ncn1 [CBK304752],115.672%

# No new results follow: entries from further up.
row,SMILES,% of control remaining
17,Cc1cccn2c(CN3CCCC(O)C3)c(C(=O)N3CCOCC3)nc12 (centres unmarked) [CBK306545],148.745%
18,CCc1cc(Br)ccc1S(=O)(=O)NCCOc1ccccc1 [CBK044882],104.564%
19,O=C(O)c1ccc(N2C(=O)C3C4C=CC(C4=C(c4ccccc4)c4ccccc4)C3C2=O)cc1 (centres unmarked) [CBK263030],112.578%
20,CS(=O)(=O)Nc1nnc(C2CCCCC2)s1 [CBK069540],105.547%

# Arranged by SMILES length (high to low): some entries from above
row,SMILES,% of control remaining
23,O=C1CC(c2ccco2)Cc2c1cnn2-c1ccccc1 (centres unmarked) [CBK287860],116.277%
15,O=C(Nc1nc(-c2cccnc2)cs1)c1ccccc1 [CBK287569],147.783%
22,Cc1cc(C)c2nc(O)nc(O)c2c1 [CBK017986],130.434%

# (continued)

row,SMILES,% of control remaining
1,Cc1nc(S(=O)(=O)N2CCC3(CCCCC3)C2)cn1C [CBK306306],100.21%
2,CCOC(=O)CCc1nc2ccccc2nc1O [CBK264526],121.547%
3,O=C1CCCC[C@@H]2[C@@H](N1)[C@H](c1ccccc1)CN2Cc1ccnc2ccccc12 [CBK286280],128.171%
4,CC(C)[C@H](CO)Nc1nc(-c2cccc3ccccc23)cnc1N [CBK063701],83.0447%
5,CCCc1nn(CC(=O)NC(C)(C)C)c(=O)c2cc3ccsc3n12 [CBK284148],125.869%
6,COc1ccc(OCC(F)(F)F)c(C(=O)N2CCSCC2)c1 [CBK005950],123.908%
7,c1ccc2c(c1)CCN(Cc1nc3ccccc3[nH]1)C2 [CBK126396],107.829%
8,Nc1nc(SCC(=O)c2ccc3c(c2)OCCO3)n[nH]1 [CBK266554],134.595%
9,COc1cccc(Oc2cnc(-c3ccc(C(=O)N(C)C)cc3)c(N)n2)c1 [CBK145185],120.052%
10,CS(=O)(=O)Nc1cccc(-c2cnc3[nH]c(=O)n(Cc4ccc(S(C)(=O)=O)cc4)c3n2)c1 [CBK065061],136.05%
11,O=C(CCN1CCN2CCCCC2C1)N1c2ccccc2Sc2ccc(Cl)cc21 (centres unmarked) [CBK278257F],102.095%
12,Cc1cn(C2CC(O)C(CNC(=O)C(F)(F)F)O2)c(=O)[nH]c1=O (centres unmarked) [CBK201200],152.467%
13,CCOc1ccc(NC(=O)NC(=O)C2CCN(C(C)=O)CC2)cc1 [CBK034852],92.192%
14,Cc1cc(C(=O)NCc2c(-c3ccccc3)noc2C)n[nH]1 [CBK144076],95.8251%
15,CN(C)c1nc(N2CCOCC2)c(C#N)c(=O)o1 [CBK007447],97.5317%
16,CSc1nc(N)c2c3c(sc2n1)CN(C)CC3 [CBK018303],102.195%
17,CC1(C)NC(C)(C)C(=N\O)/C(=N\O)C/1=N\O [CBK261512],93.1416%
18,Cc1ccc(C(=O)C2=C(O)C(=O)N(Cc3cccnc3)C2c2cccc([N+](=O)[O-])c2)cc1 (centres unmarked) [CBK264593],100%
19,CCN(CC)CCN1CCN(c2cc(-c3cc(C(F)(F)F)cc(C(F)(F)F)c3)ncn2)CC1 [CBK091195],188.408%
20,COc1ccccc1-c1c(O)n[nH]c1C(C)C [CBK075133],83.124%
21,COc1ccc(NC2=NC(=O)CC(C(=O)Nc3ccc(C)c(C)c3)N2)cc1 (centres unmarked) [CBK269359],155.028%
22,CC(C)(C)c1ccc(C(=O)N2CCN(C(=O)CN3CCOCC3)C2)cc1 [CBK051554C],94.5932%
23,O=C(CSCc1ccc(Cl)cc1Cl)Nc1c[nH]c(=O)[nH]c1=O [CBK126912],91.1994%
24,CC(=O)c1sccc1NS(=O)(=O)c1ccc2ccccc2c1 [CBK200042],123.961%
25,CN1C[C@@H](NC(=O)Nc2ccccc2)C[C@H]1c1nc(-c2cccnc2)no1 [CBK288858],140.548%
26,CC(C)(C)C(=O)CSc1nnc(-c2ccccn2)s1 [CBK006894],110.178%
